# Experiments:
# MCF10A = test: MTT cytotoxicity assay, MCF10A normal breast epithelial cell line; format: cell-based; conditions: Homo sapiens, MCF-10A, MCF10A normal cells, read-out: MCF10A IC50 (µM) ± SD
# Excerpt: (§1) To evaluate the antitumor activity of the newly synthesized sulfonamide carbonic anhydrase inhibitors (compounds M3, M4, and M5), we employed cell line assays using 3-(4,5-dimethylthiazol-2-yl)-2,5-diphenyltetrazolium (MTT). Two cell types were utilized in this study: MCF-7, a breast cancer cell line, to assess the effects of the compounds on cancer cells, and MCF10A, a normal breast epithelial cell line, to evaluate the effects on non-cancerous cells. These cell lines were procured from the Iranian National Cell Bank at the Pasteur Institute. MCF-7 cells were cultured in RPMI-1640 medium, while MCF10A cells were cultured in DMEM: F12 medium. Both media were supplemented with 10% fetal bovine serum (FBS), followed by the addition of antibiotics (100 µg/ml streptomycin and 100 units/ml penicillin). The cells were maintained in a humidified atmosphere at 37°C with 5% carbon dioxide. For cell passaging, a trypsin/EDTA solution (Gibco) and phosphate-buffered saline (PBS) were utilized. Cell viability was assessed using MTT from Sigma-Aldrich. Each type of cell (MCF-7 and MCF10A) was cultured separately in 96-well plates (1.4 × 10^4 cells per well with 200 µl of fresh medium) after a full day had passed (temperature of 37°C in a 5% CO2 environment). […] An ELISA reader (Model Wave xs2, BioTek) was used to measure cell vitality by absorption at 570 nm and calculate the IC50 values.
# MCF-7 = test: MTT cytotoxicity assay, MCF-7 breast cancer cell line; format: cell-based; conditions: Homo sapiens, MCF7; MCF-7, MTT; read-out: MCF-7 IC50 (µM) ± SD
# Excerpt: as §1
structure (smiles),measurement,setting,value
"CC(=O)Nc1nnc(S(N)(=O)=O)s1 [AZZ, acetazolamide, reference compound]",IC50,MCF10A,53.9 ± 5.64 µM
same,IC50,MCF-7,67.5 ± 1.8 µM

# Reference: paper PMC10994617, “In silico study, synthesis, and antineoplastic evaluation of thiazole-based sulfonamide derivatives and their silver complexes with expected carbonic anhydrase inhibitory activity” (Journal of Medicine and Life, 2023)
